Assay results reported in article PMC11549365.
Like-named read-outs stand apart in the source and are kept apart here. These are yes or no findings as the source states them, for the method shown. In cells and extracts the contact can be indirect. Some entries that bind do so weakly or less than the wild type. Tags and fused reporters may be left off the sequences shown.

Sequences of proteins named here, by UniProt entry; tags and fusion partners are left off.
UniProt Q8CDJ3: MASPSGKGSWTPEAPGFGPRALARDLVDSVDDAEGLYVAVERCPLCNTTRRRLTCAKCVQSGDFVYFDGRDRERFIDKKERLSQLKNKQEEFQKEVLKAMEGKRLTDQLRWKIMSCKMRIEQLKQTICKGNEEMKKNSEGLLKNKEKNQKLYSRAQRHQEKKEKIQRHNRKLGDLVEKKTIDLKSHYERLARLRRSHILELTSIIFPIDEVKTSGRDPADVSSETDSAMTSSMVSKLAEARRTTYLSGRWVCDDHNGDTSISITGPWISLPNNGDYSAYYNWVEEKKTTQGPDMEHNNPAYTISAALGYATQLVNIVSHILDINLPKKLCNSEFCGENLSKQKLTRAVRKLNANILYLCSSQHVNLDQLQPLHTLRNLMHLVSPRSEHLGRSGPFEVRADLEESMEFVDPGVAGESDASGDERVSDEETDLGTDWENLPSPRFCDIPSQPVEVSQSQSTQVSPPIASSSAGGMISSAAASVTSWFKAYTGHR
UniProt Q8K341: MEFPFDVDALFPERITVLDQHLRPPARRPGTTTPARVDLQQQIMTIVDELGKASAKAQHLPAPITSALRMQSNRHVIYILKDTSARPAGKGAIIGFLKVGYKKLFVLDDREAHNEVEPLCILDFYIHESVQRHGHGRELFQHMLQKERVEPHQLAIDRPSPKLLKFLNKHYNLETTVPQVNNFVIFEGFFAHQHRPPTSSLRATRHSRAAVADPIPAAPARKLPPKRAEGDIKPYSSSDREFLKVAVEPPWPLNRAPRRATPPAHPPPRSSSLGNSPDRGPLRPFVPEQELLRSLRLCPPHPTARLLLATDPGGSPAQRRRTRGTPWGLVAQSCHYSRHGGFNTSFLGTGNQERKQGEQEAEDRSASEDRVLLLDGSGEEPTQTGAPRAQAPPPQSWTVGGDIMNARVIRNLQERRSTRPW

T1: FLAG-TMEM232 (mouse) (UniProt Q5K6N0)
T1 sequence: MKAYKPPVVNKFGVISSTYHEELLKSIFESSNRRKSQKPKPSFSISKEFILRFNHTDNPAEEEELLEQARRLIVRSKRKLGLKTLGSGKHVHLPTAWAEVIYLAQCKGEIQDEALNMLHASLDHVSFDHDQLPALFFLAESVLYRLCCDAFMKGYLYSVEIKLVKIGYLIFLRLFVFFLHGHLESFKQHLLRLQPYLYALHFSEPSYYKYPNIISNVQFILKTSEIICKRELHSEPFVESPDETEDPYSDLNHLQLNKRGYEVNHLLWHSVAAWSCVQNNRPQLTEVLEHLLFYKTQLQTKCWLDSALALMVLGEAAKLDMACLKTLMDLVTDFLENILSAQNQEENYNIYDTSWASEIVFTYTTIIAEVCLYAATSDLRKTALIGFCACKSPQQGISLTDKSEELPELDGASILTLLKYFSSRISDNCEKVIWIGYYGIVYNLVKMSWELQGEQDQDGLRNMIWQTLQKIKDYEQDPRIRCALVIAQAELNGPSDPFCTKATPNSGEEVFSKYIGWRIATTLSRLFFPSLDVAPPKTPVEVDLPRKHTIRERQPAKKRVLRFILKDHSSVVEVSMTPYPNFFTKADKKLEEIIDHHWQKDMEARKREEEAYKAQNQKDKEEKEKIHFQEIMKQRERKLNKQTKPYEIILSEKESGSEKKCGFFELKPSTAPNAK

T2: VDAC3 (Outer Mitochondrial Membrane Protein Porin 3) (not stated (human or mouse cDNA cloned)) (UniProt Q60931)
T2 sequence: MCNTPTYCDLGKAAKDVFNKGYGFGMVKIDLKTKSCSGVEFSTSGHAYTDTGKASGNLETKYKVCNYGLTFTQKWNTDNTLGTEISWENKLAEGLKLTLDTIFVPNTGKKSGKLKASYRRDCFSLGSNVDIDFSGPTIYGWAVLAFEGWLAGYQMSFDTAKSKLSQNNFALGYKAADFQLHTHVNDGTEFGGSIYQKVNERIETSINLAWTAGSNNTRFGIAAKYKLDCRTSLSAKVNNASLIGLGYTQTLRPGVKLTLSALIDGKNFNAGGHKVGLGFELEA


Tests used:
Assay in all cases: co-IP; HEK-293T cells co-transfected with the two plasmids, lysed after 24 h (50 mM HEPES pH 7.4, 150 mM NaCl, 2 mM MgCl2, 1 mM EGTA, 0.1% Triton X-100); cleared lysate incubated with FLAG beads overnight at 4 °C, washed three times; western blot with anti-FLAG and anti-GFP
[1] = molecular target: T1, FLAG-TMEM232 (mouse)
[2] = molecular target: T2, VDAC3 (Outer Mitochondrial Membrane Protein Porin 3) (not stated (human or mouse cDNA cloned))
[3] = molecular target: T1, FLAG-TMEM232 (mouse); remark: listed apart in the source

Molecule	binding [1]	binding [2]	binding [3]
ATG14 (from UniProt Q8CDJ3 1-492)	binds	–	–
ATAT1 (Alpha α-Tubulin Acetyltransferase 1) (from UniProt Q8K341 1-421) (enzyme)	binds	–	–
GFP-SEPTIN2 (protein, UniProt P42208 1-361) MSKQQPTQFINPETPGYVGFANLPNQVHRKSVKKGFEFTLMVVGESGLGKSTLINSLFLTDLYPERIIPGAAEKIERTVQIEASTVEIEERGVKLRLTVVDTPGYGDAINCRDCFKTIISYIDEQFERYLHDESGLNRRHIIDNRVHCCFYFISPFGHGLKPLDVAFMKAIHNKVNIVPVIAKADTLTLKERERLKKRILDEIEEHSIKIYHLPDAESDEDEDFKEQTRLLKASIPFSVVGSNQLIEAKGKKVRGRLYPWGVVEVENPEHNDFLKLRTMLITHMQDLQEVTQDLHYENFRSERLKRGGRKVENEDMNKDQILLEKEAELRRMQEMIARMQAQMQMQMQGGDSDSGALGQHV	–	binds	binds
GFP-SEPTIN7 (protein, UniProt O55131 1-436) MSVSARSAAAEERSVNCGTMAQPKNLEGYVGFANLPNQVYRKSVKRGFEFTLMVVGESGLGKSTLINSLFLTDLYSPEYPGPSHRIKKTVQVEQSKVLIKEGGVQLLLTIVDTPGFGDAVDNSNCWQPVIDYIDSKFEDYLNAESRVNRRQMPDNRVQCCLYFIAPSGHGLKPLDIEFMKRLHEKVNIIPLIAKADTLTPEECQQFKKQIMKEIQEHKIKIYEFPETDDEEENKLVKKIKDRLPLAVVGSNTIIEVNGKRVRGRQYPWGVAEVENGEHCDFTILRNMLIRTHMQDLKDVTNNVHYENYRSRKLAAVTYNGVDNNKNKGQLTKSPLAQMEEERREHVAKMKKMEMEMEQVFEMKVKEKVQKLKDSEAELQRRHEQMKKNLEAQHKELEEKRRQFEEEKANWEAQQRILEQQNSSRTLEKNKKKGKIF	–	binds	binds
GFP-SEPTIN12 (protein, UniProt A0A2R8VJU7 1-357) MDERRSPSPCSSRPSSPRTPPNEMFGPVGIEAVLDQLRIKAMKTGFEFNIMVVGQSGLGKSTMVNTLFKSKVWQSTEPNLDVPMPQTLELHSVTHVIEEKGLKLKLTVTDTPGFGDQINNDKCWDPILSYINQQYEQYLQEELLITRQRHIPDTRVHCCVYFVPPTGHCLRPLDIEFLRRLCRTVNVVPVIARADSLTIEERDAFRSRIQQNLKTHCIDVYPQKCFDEDVNDRLLNSKIREQIPFAVVGADREHIVNGRCVLGRKTKWGIIEVENMAHCEFLLLRDLLIRSHLQDLKDITHNVHYENYRVLRLNESHVLPRGPGWVNLAPVSPGQLMAPGPGKVRKRANKDTKDEEC	–	binds	binds
GFP-SEPTIN4 (protein, UniProt P28661 1-478) MDHSLGWQGNSVPEDGTEAGIKHFLEDSSDDAELSKFVKDFPGSEPYHSAESKTRVARPQILEPRPQSPDLCDDDVEFRGSLWPQPSDSQQYFSAPAPLSPSSRPRSPWGKLDPYDSSEDDKEYVGFATLPNQVHRKSVKKGFDFTLMVAGESGLGKSTLVNSLFLTDLYRDRKLLGAEERIMQTVEITKHAVDIEEKGVRLRLTIVDTPGFGDAVNNTECWKPVAEYIDQQFEQYFRDESGLNRKNIQDNRVHCCLYFISPFGHGLRPLDVEFMKALHQRVNIVPILAKADTLTPPEVDRKKCKIREEIEHFGIKIYQFPDCDSDEDEDFKLQDQALKESIPFAVIGSNTVVEARGRRVRGRLYPWGIVEVENPGHCDFVKLRTMLVRTHMQDLKDVTRETHYENYRAQCIQSMTRLVVKERNRNKLTRESGTDFPIPAVPPGTDPETEKLIREKDEELRRMQEMLHKIQRQMKETH	–	–	binds
GFP-SEPTIN6 (protein, UniProt Q9R1T4 1-434) MAAADIARQVGEDCRTVPLAGHVGFDSLPDQLVNKSVSQGFCFNILCVGETGLGKSTLMDTLFNTKFEGEPATHTQPGVQLQSNTYDLQESNVGLKLTIVSTVGFGDQINKEDSYKPIVEFIDAQFEAYLQEELKIRRVLHSYHDSRIHVCLYFIAPTGHSLKSLDLVTMKKLDSKVNIIPVIAKSDAISKSELAKFKIKITSELVSNGVQIYQFPTDDESVSEINGTMNAHLPFAVVGSTEEVKIGNKMMRARQYPWGTVQVENEAHCDFVKLREMLIRVNMEDLREQTHARHYELYRRCKLEEMGFKDTDPDSKPFSLQETYEAKRNEFLGELQKKEEEMRQMFVQRVKEKEAELKEAEKELHEKFDRLKKLHQEEKKKLEDKKKCLDEEMNAFKQRKAAAELLQSQGSQAGGSQTLKRDKEKKNNPWLCIE	–	–	binds
GFP-SEPTIN11 (protein, UniProt Q8C1B7 1-431) MAVAVGRPSNEELRNLSLSGHVGFDSLPDQLVNKSTSQGFCFNILCVGETGIGKSTLMDTLFNTKFESDPATHNEPGVRLKARSYELQESNVRLKLTIVDTVGFGDQINKDDSYKPIVEYIDAQFEAYLQEELKIKRSLFNYHDTRIHACLYFIAPTGHSLKSLDLVTMKKLDSKVNIIPIIAKADTIAKNELHKFKSKIMSELVSNGVQIYQFPTDEETVAEINATMSVHLPFAVVGSTEEVKIGNKMAKARQYPWGVVQVENENHCDFVKLREMLIRVNMEDLREQTHTRHYELYRRCKLEEMGFKDTDPDSKPFSLQETYEAKRNEFLGELQKKEEEMRQMFVMRVKEKEAELKEAEKELHEKFDLLKRTHQEEKKKVEDKKKELEEEVSNFQKKKAAAQLLQSQAQQSGAQQTKKDKDKKNPWLCTE	–	–	binds
GFP-SEPTIN14 (protein, UniProt Q9DA97 1-430) MAEKPTNTSVPIPGSEDPQKENIRCLSTLGHFGFECLPTQLVNKSIQKGFSFNILCVGETGIGKTTLINTLFNTNLKETKSSHFYSKVGLTVKTYELLERNIPLRLTVVKTVGYGDQINKEASYQPVVDYLDAQFEAYLQEELKIKRSLADYHDSRIHVCLYFITPTGHSLKSLDLLTMKSIDRRVNIIPLIAKADSLSKNDLQRFKNNIMSELNSNGIQIYQFQVDDEASAQVNSSGLLPFAVVGSMEEVKVGKRMVRGRHYPWGVLQEVENENHCDFVKLRDLLLSTNMEDLKDQTHTQHYECYRSNRLQKLGFSDTGPDNRPVSFQEMYEAKRREFHNQCQKEEEELKQTFMQRVKEKELTFKDAEKELQDKFEHLKRIQQEEILKLEEERRKLEEQIIDFYKMKAASESAQAQVCTNIKKDKDRKK	–	–	binds
